The text below walks through data of article PMC5241876.

These are yes or no findings as the source states them, for the method shown. In cells and extracts the contact can be indirect. These calls come from enrichment with a bait or labelling near it, and not all partners need be listed.

In this test the target is neural cell adhesion molecule 1 (NCAM1) (mouse (endogenous in NMuMG)). The test can be described thus: affinity purification with mass spectrometry; NCAM1 interactome Dataset III: NCAM1 co-IP from in vivo formaldehyde-crosslinked wild-type NMuMG cells before and after 48 h TGFB1; smaller scale; six-plex TMT.

B1: integrin alpha V (ITGAV) (protein, UniProt P43406 31-1044)
chain: FNLDVESPAEYAGPEGSYFGFAVDFFEPSTSSRMFLLVGAPKANTTQPGIVEGGQVLKCECSSSRRCQPIEFDSTGNRDYAKDDPLEFKSHQWFGASVRSKQDKILACAPLYHWRTEMKQEREPVGTCFLQDGTKTVEYAPCRSKNIDADGQGFCQGGFSIDFTKADRVLLGGPGSFYWQGQLISDQVAEIISKYDPNVYSIKYNNQLATRTAQAIFDDSYLGYSVAVGDFNGDGIEDFVSGVPRAARTLGMVYIYDGKNMSSLHNFTGEQMAAYFGFSVAATDINGDDYADVFIGAPLFMDRGSDGKLQEVGQVSVSLQRAVGDFQTTKLNGFEVFARFGSAIAPLGDLDQDGFNDIAIAAPYGGEDKKGLVYIFNGRSTGLNSVPSQILEGQWAAQSMPPSFGYSMKGATDVDRNGYPDLVVGAFGVDRAVLYRARPVVTVNAGLEVYPSILNQDNKICPLPGTALKVSCFNVRFCLKADGKGTLPRKLHFQVELLLDKLKQKGAIRRALFLHNRSPVHSKTMTVFRGGQMQCEELVAYLRDESEFRDKLTPITIFMEYRLDQRTAADATGLQPILNQFTPANVSRQAHILLDCGEDNVCKPKLEVSVNSDQKKIYIGDDNPLTLTVKAQNQGEGAYEAELIVSIPPQADFIGVVRNNEALARLSCAFKTENQTRQVVCDLGNPMKAGTQLLAGLRFSVHQQSEMDTSVKFDLKIQSSNSFDNVSPVVSYKVDLAVLAAVEIRGVSSPDHIFLPIPNWEYKENPETEEDVGPIVQHIYELRNNGPSSFSKAILNLQWPYKYNNNTLLYILHYDIDGPMNCTADTEINPLRIKTPEKNDTAAAGQGERNHLITKRDLTLREGDVHTLGCGIAKCLQITCQVGRLDRGKSAILYVKSLLWTETFMNKENQNHSYSLKSSASFNIIEFPYKNLPIEDLFNSTLVTTNITWGIQPAPMPVPVWVIILAVLAGLLLLAVLVFVMYRMGFFKRVRPPQEEQEREQLQPHENGEGNSET
For B1, the binding entry is “binds”.

B2: integrin alpha-2 (ITGA2) (protein, UniProt Q62469 27-1178)
chain: YNVGLPGAKIFSGPSSEQFGYSVQQLTNPQGNWLLVGSPWSGFPENRMGDVYKCPVDLPTATCEKLNLQNSASISNVTEIKTNMSLGLTLTRNPGTGGFLTCGPLWAHQCGNQYYATGICSDVSPDFQFLTSFSPAVQACPSLVDVVVVCDESNSIYPWEAVKNFLVKFVTGLDIGPKKTQVALIQYANEPRIIFNLNDFETKEDMVQATSETRQHGGDLTNTFRAIEFARDYAYSQTSGGRPGATKVMVVVTDGESHDGSKLKTVIQQCNDDEILRFGIAVLGYLNRNALDTKNLIKEIKAIASTPTERYFFNVADEAALLEKAGTLGEQIFSIEGTVQGGDNFQMEMAQVGFSADYAPQNDILMLGAVGAFDWSGTLVQETSHKPVIFPKQAFDQVLQDRNHSSFLGYSVAAISTEDGVHFVAGAPRANYTGQIVLYSVNKQGNVTVIQSHRGDQIGSYFGSVLCSVDVDKDTITDVLLVGAPTYMNDLKKEEGKVYLFTITKGILNQHQFLEGPEGTGNARFGSAIAALSDINMDGFNDVIVGSPVENENSGAVYIYNGHQGTIRTKYSQKILGSNGAFRRHLQFFGRSLDGYGDLNGDSITDVSIGALGQVIQLWSQSIADVAIEALFTPDKITLLNKDAKITLKLCFRAEFRPAGQNNQVAILFNMTLDADGHSSRVTSRGVFRENSERFLQKNMVVNEVQKCSEHHISIQKPSDVVNPLDLRVDISLENPGTSPALEAYSETVKVFSIPFYKECGSDGICISDLILDVQQLPAIQTQSFIVSNQNKRLTFSVILKNRGESAYNTVVLAEFSENLFFASFSMPVDGTEVTCEVGSSQKSVTCDVGYPALKSEQQVTFTINFDFNLQNLQNQAAINFQAFSESQETNKADNSVSLTIPLLYDAELHLTRSTNINFYEISSDENAPSVIKSVEDIGPKFIFSLKVTAGSAPVSMALVTIHIPQYTKEKNPLLYLTGIQTDQAGDISCTAEINPLKLPHTAPSVSFKNENFRHTKELDCRTTSCSNITCWLKDLHMKAEYFINVTTRVWNRTFAASTFQTVQLTAAAEIDTHNPQLFVIEENAVTIPLMIMKPTEKAEVPTGVIIGSIIAGILLLLAMTAGLWKLGFFKRQYKKMGQNPDEMDETTELNS
Turning to B2, the binding result is “binds”.
